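A cell-based luciferase reporter for ATXN2 expression, read by light output at 24 h, with a viability multiplex. Compounds were tested as a dilution series from about 0.0037 to 57 µM. The number is the fitted half-maximal inhibitory concentration (AC50); a lower value means a more potent inhibitor. Calls come from curve class and activity score: actives score 40–100, while inconclusive compounds (weak, partial, poorly fitted or single-point curves) score 1–39.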

Values are in µM. Every entry below has the call inconclusive. These entries are mostly ones the record files as inconclusive; other results of the assay are not listed here. A potency from a partial, single-point or poor curve is only a rough figure. Some entries filed as inconclusive have a full curve. Activity scores are not listed here.

compound | Potency (µM) | curve as filed
Cc1ccc(S(=O)(=O)Nc2cccc3cccnc23)c([N+](=O)[O-])c1 | 11.22 | inhibitor, partial curve, poor fit
COc1ccc(/C=C/C(=O)Nc2ccc(C)c(S(=O)(=O)N3CCOCC3)c2)cc1 | 17.78 | inhibitor, partial curve, poor fit
Cc1ccnc(NC(=S)N2CCN(c3cccc(C(F)(F)F)c3)CC2)c1 | 11.22 | inhibitor, partial curve, poor fit
CC1(C)C(C=C(Cl)Cl)C1C(=O)Nc1ccc([N+](=O)[O-])cc1 (configuration not stated) | 28.18 | inhibitor, single point
CC1CCCCN1C(=O)C1CCN(c2nc(-c3ccccc3)nc3c2CCC3)CC1 (configuration not stated) | 22.39 | inhibitor, partial curve, poor fit
CC1(C(=O)NCc2cccc(C(F)(F)F)c2)CCN1Cc1ccc(-c2ccccc2)o1 (configuration not stated) | 28.18 | inhibitor, single point
Cc1cc(O)c(C)c(O)c1/C=N/NC(=O)c1cccnc1 | 8.912 | inhibitor, partial curve, poor fit
COc1ccc(NC(C)C(=O)N/N=C/c2c(O)ccc3ccccc23)cc1 (configuration not stated) | 3.548 | inhibitor, full curve, poor fit
CC1(C)Cc2c(sc(NC(=O)c3ccc(C(=O)c4ccccc4)cc3)c2C(N)=O)C(C)(C)N1 | 28.18 | inhibitor, partial curve, poor fit
O=C(Nc1ccc(Oc2ccc(NC(=O)Nc3ccc([N+](=O)[O-])cc3)cc2)cc1)Nc1ccc([N+](=O)[O-])cc1 | 5.012 | inhibitor, full curve, poor fit
O=C(Nc1cccnc1)C1Cc2c(-c3ccc4c(c3)OCO4)ccnc2O1 (configuration not stated) | 2.239 | inhibitor, partial curve
COC(=O)c1c(NC(=O)c2ccc([N+](=O)[O-])o2)sc2c1CCN(C(C)C)C2 | 22.39 | inhibitor, partial curve, poor fit
CC(=O)c1ccc(C(=O)Nc2nnc(-c3ccc(Cl)cc3)o2)cc1 | 3.162 | inhibitor, partial curve
N#CC1=C(N)N2C(=C(C#N)C1c1ccc(Br)cc1)Nc1ccccc12 (configuration not stated) | 1 | inhibitor, full curve
CC(C)=CCc1c(O)cc2oc3c(CC=C(C)C)c(O)c(O)c(CC=C(C)C)c3c(=O)c2c1O | 3.162 | inhibitor, single point
CN1C(=O)/C(=C/c2ccccc2F)Sc2ccc(C(=O)N3CCCC3)cc21 | 25.12 | inhibitor, single point
CC(NC(=O)Nc1cccc([N+](=O)[O-])c1)(C(F)(F)F)C(F)(F)F | 19.95 | inhibitor, single point
O=C(N/N=C/c1cc(Cl)ccc1O)c1cccnc1 | 0.7943 | inhibitor, full curve
CCn1cc(Cl)c(C(=O)N2N=C(c3ccc4ccccc4c3)CC2c2ccccc2O)n1 (configuration not stated) | 25.12 | inhibitor, single point
O=C(CNC(=O)c1ccco1)N/N=C/c1cc(Br)ccc1O | 12.59 | inhibitor, partial curve, poor fit
CCc1ccc(CNC(=O)C2CCN(c3nnc(C)c4c(C)n(-c5ccc(C)cc5)nc34)CC2)cc1 | 25.12 | inhibitor, partial curve, poor fit
O=C(Nc1nonc1-c1ccc(Cl)cc1)c1ccccc1 | 28.18 | inhibitor, partial curve, poor fit
CCOc1ccc(-n2c(SCc3ccc([N+](=O)[O-])cc3)nnc2-c2ccccc2)cc1 | 22.39 | inhibitor, partial curve, poor fit
CCn1nc(C(=O)Nc2ccccc2N2CCCC2)c2ccccc2c1=O | 5.623 | inhibitor, partial curve
COc1ccc(-c2c[n+]3c4n2CCCCC4=C(c2ccc(Br)cc2)C3)cc1 | 2.818 | inhibitor, partial curve
Cc1ccc(OCCNC(=O)c2cncc(Br)c2)cc1C | 22.39 | inhibitor, single point
Cc1cccc(OCC(=O)Nc2ccc3c(c2)nc(CCN2CCN(c4ccccn4)CC2)n3C)c1 | 28.18 | inhibitor, partial curve, poor fit
CS(=O)(=O)c1ccc(Nc2nc(C(N)Cc3ccc(Cl)cc3)cs2)cc1 (configuration not stated) | 35.48 | inhibitor, single point
CCN(CC)S(=O)(=O)c1ccc(C)c(NC(=S)N2CCN(c3ccccn3)CC2)c1 | 31.62 | inhibitor, partial curve, poor fit
Cc1cc(N2CCN(c3nc(-c4ccccc4)cs3)CC2)c2ccccc2n1 | 2.512 | inhibitor, partial curve
COc1ccc(N(CC(=O)N2CCN(c3ccc(Cl)cc3)CC2)S(=O)(=O)c2c(C)n[nH]c2C)cc1 | 2.818 | inhibitor, partial curve
OC[C@@H]1[C@@H](c2ccc(F)cc2)C(c2cccc(Cl)c2)=NN1c1ccccc1 | 39.81 | inhibitor, single point
O=C(N/N=C/c1ccc(O)cc1O)c1ccc(NC(=O)C2CCCCC2)cc1 | 10 | inhibitor, partial curve, poor fit

The results are deposited in PubChem (AID1745848; NCATS, 2022).